Literature values, collected in patent US20240269136A1, “EGFR INHIBITOR AND PERK ACTIVATOR IN COMBINATION THERAPY AND THEIR USE FOR TREATING CANCER” (Genentech, Inc., priority 2021, published 2024).
Some results were stated once for a whole list of compounds, not compound by compound.

System: EGFR-mutant EGFR-T790M NSCLC patients
Conditions: EGFR-mutant EGFR-T790M NSCLC patients who have developed resistance to gefitinib or erlotinib; cited from earlier work

C=CC(=O)Nc1cc(Nc2nccc(-c3cn(C)c4ccccc34)n2)c(OC)cc1N(C)CCN(C)C [Osimertinib, N-[2-[2-(dimethylamino)ethyl-methyl-amino]-4-methoxy-5-[[4-(1-methylindol-3-yl)pyrimidin-2-yl]amino]phenyl]prop-2-enamide]
response rate: > 50%
